Test results as given in paper PMC3584050.
These are yes or no findings as the source states them, for the method shown. Binding seen in cells or lysates may run through a third protein.

By UniProt entry, the sequences of proteins in these tests, tags left out.
UniProt Q9GZT9: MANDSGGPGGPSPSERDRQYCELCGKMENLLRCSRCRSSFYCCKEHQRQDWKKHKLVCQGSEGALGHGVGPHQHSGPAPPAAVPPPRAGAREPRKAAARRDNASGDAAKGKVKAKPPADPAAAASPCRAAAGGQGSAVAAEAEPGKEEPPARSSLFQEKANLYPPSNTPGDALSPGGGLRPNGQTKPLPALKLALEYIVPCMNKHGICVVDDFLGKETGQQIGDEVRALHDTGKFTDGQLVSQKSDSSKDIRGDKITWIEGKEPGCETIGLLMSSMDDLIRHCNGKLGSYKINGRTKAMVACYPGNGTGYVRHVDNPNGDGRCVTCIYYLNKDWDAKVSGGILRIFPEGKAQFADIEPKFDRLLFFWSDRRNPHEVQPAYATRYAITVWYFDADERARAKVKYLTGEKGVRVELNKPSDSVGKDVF
UniProt Q9NNX6: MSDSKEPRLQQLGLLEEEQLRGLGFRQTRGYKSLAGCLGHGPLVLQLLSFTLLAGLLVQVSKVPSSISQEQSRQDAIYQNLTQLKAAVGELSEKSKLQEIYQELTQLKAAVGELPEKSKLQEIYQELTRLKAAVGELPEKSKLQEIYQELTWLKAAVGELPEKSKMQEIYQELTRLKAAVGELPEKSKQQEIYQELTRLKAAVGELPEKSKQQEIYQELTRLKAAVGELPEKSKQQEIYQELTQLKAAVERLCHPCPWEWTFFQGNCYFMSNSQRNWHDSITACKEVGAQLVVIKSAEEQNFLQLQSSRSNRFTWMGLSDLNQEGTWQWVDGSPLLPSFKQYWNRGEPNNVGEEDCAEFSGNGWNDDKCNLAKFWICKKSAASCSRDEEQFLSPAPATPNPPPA
UniProt Q9H2X3: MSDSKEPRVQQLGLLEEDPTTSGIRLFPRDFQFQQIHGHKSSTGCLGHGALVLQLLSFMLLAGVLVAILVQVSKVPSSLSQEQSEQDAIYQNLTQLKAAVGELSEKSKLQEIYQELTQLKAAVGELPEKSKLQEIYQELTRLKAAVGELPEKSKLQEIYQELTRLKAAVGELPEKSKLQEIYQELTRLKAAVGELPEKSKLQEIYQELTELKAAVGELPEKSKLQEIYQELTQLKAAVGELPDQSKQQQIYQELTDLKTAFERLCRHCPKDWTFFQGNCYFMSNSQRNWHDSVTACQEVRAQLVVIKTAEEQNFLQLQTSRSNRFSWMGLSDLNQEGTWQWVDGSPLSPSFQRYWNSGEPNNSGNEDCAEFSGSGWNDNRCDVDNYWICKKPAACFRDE

Biological target: GST-tagged EglN1 (UniProt Q9GZT9)
Assay: pull-down; 293T cells co-transfected with DC-SIGN or DC-SIGNR and GST-tagged bait; lysed in NP-40 lysis buffer (0.5% NP-40, 150 mM NaCl, 50 mM HEPES pH 7.5); glutathione-sepharose beads, three washes in lysis buffer; western blot for DC-SIGN/R; repeated with EndoH or PNGaseF digestion, and with HA-ubiquitin co-transfected and chloroquine, MG132 or DMSO treatment of the cells

Substance | binding
DC-SIGN (dendritic cell-specific ICAM-3 non-grabbing integrin, CD209) (from UniProt Q9NNX6 1-404) (receptor) | no binding
DC-SIGNR (CD209R) (from UniProt Q9H2X3 1-399) (receptor) | no binding
